Assay results taken from PubChem BioAssay AID2517 (National Center for Advancing Translational Sciences (NCATS), 2010).
Hit rate of the full screen: of about 350,000 compounds, about 1,200 (0.34%) were called active. The inconclusive results got no clear call from the source; some entries with a clear call stand among them for comparison. The call rests on the fitted dose curve; in most records, active means well fitted inhibition curve with a large enough effect; inconclusive means small, poorly fitted or top-dose-only effect; inactive means no such curve, though single readings can be large or run the other way. Where the call is inconclusive, the potency comes from a doubtful curve fit.

Amino acid sequences for entries named in this document (tags omitted).
UniProt P27695, whole entry, looked up: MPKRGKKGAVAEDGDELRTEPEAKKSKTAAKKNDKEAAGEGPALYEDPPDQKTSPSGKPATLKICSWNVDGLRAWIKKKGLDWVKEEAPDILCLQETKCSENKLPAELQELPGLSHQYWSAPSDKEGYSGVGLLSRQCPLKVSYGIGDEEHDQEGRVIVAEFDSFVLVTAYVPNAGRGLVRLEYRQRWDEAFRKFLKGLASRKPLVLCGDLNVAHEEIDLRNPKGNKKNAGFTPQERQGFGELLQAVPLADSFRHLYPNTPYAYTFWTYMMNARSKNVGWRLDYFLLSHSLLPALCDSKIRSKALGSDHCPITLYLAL

Target: DNA repair nuclease/redox regulator APEX1 (Homo sapiens) (UniProt P27695)
Assay: qHTS Assay for Inhibitors of the Human Apurinic/apyrimidinic Endonuclease 1 (APE1); further: nearly all actives have a fitted effect of over 55% in size;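 on activity change, negative = inhibition: plate controls were vehicle for no effect and reference inhibitor for full effect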
Settings: recombinant APE1, TAMRA/BHQ-2 abasic DNA cleavage fluorescence; activity change, negative = inhibition: at 65.8 µM (top of the series)
How it was run: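 Incision of a quenched TAMRA/BHQ-2 THF abasic-site duplex (50 nM) by 0.75 nM APE1, after 15 min compound preincubation, measured as fluorescence increase over three 60 s reads. Values normalized to buffer, DMSO and NSC13755 control wells.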
Potency means the concentration at half of the fitted maximal effect.

Structure (SMILES) | Potency | activity change, negative = inhibition
Cc1ccc(-c2cc(=O)c3cc(Cl)ccc3[nH]2)cc1 | inconclusive: 70.8 µM [inhibitor, single point] | –
Nc1c(C(=O)NCc2ccco2)nnn1CC(=O)Nc1ccccc1 | inconclusive: 0.398 µM [inhibitor, partial curve] | –
COC(=O)Nc1ccc(S(=O)(=O)N2CCCC(C(=O)N3CCOCC3)C2)cc1 (centres undefined) | – | inactive: 3.58%
Cc1ccc(C)c(OCc2nnc(SCC(=O)NC(=O)NCc3ccco3)o2)c1 | inconclusive: 20 µM [inhibitor, single point] | –
CN(C)CCCNc1ncnc2sc(-c3ccccc3)cc12 | – | inactive: -5%
CCCNC(=O)C(=O)N/N=C/c1ccc(OCc2ccccc2)cc1 | inconclusive: 35.5 µM [inhibitor, partial curve] | –
Cc1cc(C2=NNC(=Nc3ccccc3)SC2)c(C)n1C | inconclusive: 8.91 µM [inhibitor, partial curve] | –
O=C(NC(N1CCOCC1)C(Cl)(Cl)Cl)c1ccco1 (centres undefined) | – | inactive: 17.2%
COc1ccccc1S(=O)Cc1ccc(C(=O)NCc2ccccc2Cl)o1 (centres undefined) | inconclusive: 7.94 µM [inhibitor, single point] | –
CCN(CC)CC(=O)c1c[nH]c2ccc(C)cc12 | inconclusive: 44.7 µM [inhibitor, single point] | –
CN(/C=C1/C(=O)CNC1=O)CCO | inconclusive: 44.7 µM [inhibitor, single point] | –
COc1ccc(OC)c(NC(=O)CSc2nnc(C)n2Cc2ccccc2)c1 | – | inactive: -0.259%
COC(=O)c1ccccc1NC(=S)NC(=O)c1ccccc1F | inconclusive: 0.158 µM [inhibitor, full curve, poor fit] | –
Cc1ccc(Cn2c(=S)[nH]c3ccc(N4CCOCC4)cc3c2=O)o1 | inconclusive: 28.2 µM [inhibitor, single point] | –
O=C(O)c1ccc(NC2=C/C(=N/S(=O)(=O)c3ccccc3)c3ccccc3C2=O)cc1 | inconclusive: 14.1 µM [inhibitor, partial curve] | –
O=C(COC(=O)c1cccc(C(=O)OCC(=O)c2ccc(Br)cc2)n1)c1ccc(Br)cc1 | inconclusive: 3.16 µM [inhibitor, single point] | –
COc1ccc(C2CC(=O)Oc3cc4c(cc32)OCO4)cc1 (centres undefined) | inconclusive: 44.7 µM [inhibitor, single point] | –
Cc1ccc(NC(=O)CN2C(=O)S/C(=C\c3ccc(-c4cccc(C(=O)O)c4C)o3)C2=O)cc1 | inconclusive: 15.8 µM [inhibitor, partial curve] | –
COC(=O)c1ccc(CC(=O)c2c(C)cc(O)cc2O)o1 | inconclusive: 22.4 µM [inhibitor, partial curve, poor fit] | –
CC(C)(C)OC(=O)N1CCN(C(=O)Nc2ccc3c(c2)OCCO3)CC1 | inconclusive: 0.02 µM [inhibitor, full curve, poor fit] | –
CC1CCN(C2=C(NS(=O)(=O)c3ccccc3)C(=O)c3ccccc3C2=O)CC1 | inconclusive: 0.708 µM [inhibitor, full curve, poor fit] | –
COc1ccc2[nH]c(=O)c(CN(C(=O)c3cccnc3)c3ccc(C)cc3C)cc2c1 | inconclusive: 7.94 µM [inhibitor, single point] | –
Cc1ccn2c(Nc3ccc4c(c3)OCO4)c(-c3ccccn3)nc2c1 | – | inactive: 12.8%

Structure (SMILES) | Potency | activity change, negative = inhibition
CCOC(=O)n1cc(-c2cnc(CNC(=O)C(C)(c3ccccc3)c3ccccc3)o2)c2ccccc21 | inconclusive: 3.98 µM [inhibitor, single point] | –
CCn1c2ccccc2c2cc(NC(=O)COc3ccc(OC)cc3)ccc21 | inconclusive: 22.4 µM [inhibitor, single point] | –
CCOC(=O)N1CCC(NC(=O)C(NS(=O)(=O)c2cccc3nsnc23)c2ccccc2)CC1 (centres undefined) | inconclusive: 31.6 µM [inhibitor, partial curve, poor fit] | –
CO[C@H]1COC(=O)[C@@H](C)COC(=O)[C@@H](COCc2ccccc2)NC(=O)C/C=C\[C@H]1C | inconclusive: 5.01 µM [inhibitor, single point] | –
COc1c(O)ccc(C2NC(=O)NC(C)=C2C(=O)Nc2ccccc2C)c1[N+](=O)[O-] (centres undefined) | inconclusive: 20 µM [inhibitor, partial curve] | –
COc1cccc(CN(C)CC(=O)NCc2ccccc2Cl)c1OC | inconclusive: 28.2 µM [inhibitor, single point] | –
CCC(=O)N1CCc2cc(S(=O)(=O)CCC(=O)Nc3cccc(C)n3)ccc21 | inconclusive: 4.47 µM [inhibitor, single point] | –
Cc1ccc(NC(=O)N/C=C/c2ccco2)cc1 | inconclusive: 35.5 µM [inhibitor, single point] | –
COc1ccccc1C(=O)Nc1ccc2c(c1)C(=O)NC2=O | inconclusive: 33.6 µM [inhibitor, single point] | –
O=C(c1c[nH]c2ccc(F)cc2c1=O)N1CCCCCC1 | – | inactive: 3.67%
O=C1CSc2ccc(C(=O)NCc3ccccn3)cc2N1 | – | inactive: 6.27%
C=CCSc1ncccc1C(=O)O | inconclusive: 39.8 µM [inhibitor, single point] | –
COc1ccc(C2C(C#N)=C(N)Oc3c2c(C)nn3-c2ccccc2)cc1Cn1nc(C)c([N+](=O)[O-])c1C (centres undefined) | inconclusive: 7.08 µM [inhibitor, single point] | –
CCOC(=O)c1cc(C)n(CCc2ccccc2)c1C | inconclusive: 56.2 µM [inhibitor, partial curve, poor fit] | –
FC(F)(F)c1ccc(Oc2ccc(Cl)cc2Br)nc1 | inconclusive: 44.7 µM [inhibitor, single point] | –
O=C(CCCN1C(=O)/C(=C/c2cccs2)SC1=S)NNC(=O)c1ccc(F)cc1 | – | inactive: 5.94%
CC1(C)CC(=O)C(C(=O)C2CCN(S(=O)(=O)c3ccccc3)CC2)C(=O)C1 | inconclusive: 17.8 µM [inhibitor, partial curve, poor fit] | –
Cc1cc(C)n(CCC(=O)N/N=C/c2ccc(O)cc2)n1 | – | inactive: 3.84%
CC12CN3CC(C)(CN(C1)C3c1c[nH]c3ccccc13)C2=O (centres undefined) | – | inactive: 1.04%
C=CCCCCCCCCCCCC(O)CC(O)CO (centres undefined) (tested in a mixture with another compound) | inconclusive: 39.8 µM [inhibitor, single point] | –
NC(=O)C1CCN(c2nc(-c3cccs3)cs2)CC1 | inconclusive: 9.47 µM [inhibitor, partial curve] | –
N#CC1=C2SCC(O)(c3ccccc3)N2C(=O)CC1c1cccs1 (centres undefined) | inconclusive: 25.1 µM [inhibitor, single point] | –
COCCCNC(=O)CC1C(=O)N(Cc2ccccc2)C(C)c2nc3ccccc3n21 (centres undefined) | inconclusive: 44.7 µM [inhibitor, single point] | –

Record cards, from the list above. Values in the order: Potency	activity change, negative = inhibition
O=C(COC(=O)c1cccc(C(=O)OCC(=O)c2ccc(Br)cc2)n1)c1ccc(Br)cc1 is listed with inconclusive: 3.16 µM [inhibitor, single point]	–
CCCNC(=O)C(=O)N/N=C/c1ccc(OCc2ccccc2)cc1 is listed with inconclusive: 35.5 µM [inhibitor, partial curve]	–

More structures follow.

Structure (SMILES) | Potency | activity change, negative = inhibition
CCn1cc(C(=O)O)c(=O)c2cc(F)c(N/N=C/c3ccccc3[N+](=O)[O-])cc21 | – | inactive: 0.847%
O=C(Nc1ccc(F)cc1F)c1noc2c1CCC2 | inconclusive: 28.2 µM [inhibitor, partial curve] | –
Cc1ccccc1-n1sc2cc(F)ccc2c1=O | – | inactive: 0.0052%
O=C(N/N=C/c1ccco1)C1CC1c1ccccc1 (centres undefined) | inconclusive: 17.8 µM [inhibitor, partial curve] | –
COc1ccc(NC(=O)c2sc3nc(Cc4ccccc4)cc(C(F)(F)F)c3c2N)cc1OC | inconclusive: 2.24 µM [inhibitor, single point] | –
Nc1ccc(C(CC(=O)O)n2cccc2)cc1 (centres undefined) | inconclusive: 39.8 µM [inhibitor, single point] | –
NS(=O)(=O)c1nn2cc(-c3ccccc3)nc2s1 | – | inactive: -1.97%
O=C(NC1CCCCC1)C1CCN(c2nnnn2-c2ccccc2)CC1 | inconclusive: 0.0089 µM [inhibitor, full curve, poor fit] | –
Clc1ccc2c(NCc3ccco3)ncnc2c1 | inconclusive: 7.08 µM [inhibitor, single point] | –
CC(=O)c1nnn(-c2nc(N)nc(N(c3ccccc3)c3ccccc3)n2)c1C | – | inactive: -4.5%
COc1cccc(CN(C(=O)c2ccco2)C2CCS(=O)(=O)C2)c1 (centres undefined) | – | inactive: -9.36%
O=C(/C=C/c1ccccc1)c1ccc(O)cc1 | – | inactive: 13.4%
CCOC(=O)c1sc2ncnc(NCc3ccco3)c2c1C | inconclusive: 31.6 µM [inhibitor, single point] | –
Cc1ccnn1CC(=O)N/N=C/c1c[nH]c2ccccc12 | inconclusive: 7.08 µM [inhibitor, single point] | –
COc1ccc2c(c1)O[C@@H](c1ccc3c(c1)OCO3)[C@H](OC(=O)NCc1ccco1)C2=O | – | inactive: 2.67%
O=C(CCc1nc2ccccc2c(=O)[nH]1)OCC(=O)c1ccc(C2CCCCC2)cc1 | inconclusive: 31.6 µM [inhibitor, partial curve, poor fit] | –
O=C(Nc1ccc(S(=O)(=O)N2CCOCC2)cc1)c1ccc(=O)[nH]c1 | inconclusive: 7.08 µM [inhibitor, single point] | –
CC1CCC2C(C)C3C(CC4[C@@H]5CC=C6C[C@@H](O)CC[C@]6(C)C5CC[C@]34C)N2C1 (some centres undefined) | – | inactive: -10.1%
C=CCNC(=S)NCC | – | inactive: -4.06%
CCn1c(=NC(=O)c2ccc(N3C(=O)CCC3=O)cc2)sc2c(OC)ccc(OC)c21 | inconclusive: 12.6 µM [inhibitor, partial curve] | –
Cc1cccc(S(=O)(=O)Nc2ccc(C)c3c2OC(C)(C)C3)c1 | inconclusive: 44.7 µM [inhibitor, single point] | –
COC(=O)c1ccc(-c2nc3cc(Cl)c(N)cc3s2)cc1 | – | inactive: 13.8%
COc1ccc(/C=C2\CCCC(C(=O)C(F)(F)F)=C2O)cc1OC | – | inactive: 2.52%
